The whole screen tested about 320,000 compounds, of which about 620 (0.19%) were called active. This list was built around the results that the source calls inconclusive (neither active nor inactive); the mix of calls is not that of the screen. No stated cut-off is given here; in the data, active means activation above about 80%; inconclusive means between about 30% and that limit; inactive means weaker than that.
Each molecule was assayed against Transient receptor potential cation channel subfamily V member 1 (Homo sapiens) (UniProt Q8NER1) (assay: HTS Assay for Compounds that Act as Agonists of the Vanilloid Receptor 1). Conditions: TRPV1-expressing cells, Fluo-8 calcium influx, agonist mode; at 8.33 µM, active compounds read high.
Outline: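 Fluo-8 calcium influx in TRPV1-expressing cells, kinetic read (ex 480/em 520 nm). Compound added and read 3 min for agonist activity, followed by capsaicin at EC20 final and 2 min further read for enhancement.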
Further: 0% is about no effect.

The chains behind the UniProt entries cited, without tags or fusion partners.
UniProt Q8NER1, whole entry, looked up: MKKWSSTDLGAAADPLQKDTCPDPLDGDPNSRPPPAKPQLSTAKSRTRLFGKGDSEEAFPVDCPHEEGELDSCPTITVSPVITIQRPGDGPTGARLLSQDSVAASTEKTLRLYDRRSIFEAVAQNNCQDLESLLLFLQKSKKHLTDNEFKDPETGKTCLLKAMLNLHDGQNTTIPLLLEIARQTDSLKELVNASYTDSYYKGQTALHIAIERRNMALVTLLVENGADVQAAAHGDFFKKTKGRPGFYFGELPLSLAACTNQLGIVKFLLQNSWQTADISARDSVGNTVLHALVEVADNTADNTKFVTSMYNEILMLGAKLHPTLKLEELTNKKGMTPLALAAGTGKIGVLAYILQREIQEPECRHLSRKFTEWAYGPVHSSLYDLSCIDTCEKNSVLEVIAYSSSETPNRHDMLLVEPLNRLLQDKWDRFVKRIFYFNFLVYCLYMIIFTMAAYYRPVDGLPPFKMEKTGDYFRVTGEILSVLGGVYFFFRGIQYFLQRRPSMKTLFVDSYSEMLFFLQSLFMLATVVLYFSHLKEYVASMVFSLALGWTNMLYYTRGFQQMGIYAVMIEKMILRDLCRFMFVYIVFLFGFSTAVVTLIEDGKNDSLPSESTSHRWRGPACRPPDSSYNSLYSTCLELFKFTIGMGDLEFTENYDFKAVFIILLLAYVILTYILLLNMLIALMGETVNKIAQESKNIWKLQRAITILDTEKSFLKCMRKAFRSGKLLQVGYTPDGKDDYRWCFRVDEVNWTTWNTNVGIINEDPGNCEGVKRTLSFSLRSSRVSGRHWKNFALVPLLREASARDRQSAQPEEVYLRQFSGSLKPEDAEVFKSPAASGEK

**Q.** For COc1ccc(-n2nnnc2SCc2nc3ccccc3s2)cc1, which activation is on record?
**A.** Its activation is inconclusive: 42.3%.

**Q.** For Cc1ccnc(NC(=O)c2cc3ccccc3oc2=O)c1, which activation is on record?
**A.** Its activation is inactive: 2.85%.

**Q.** For CC(NC(=O)[C@@H](C)NC(=O)[C@@H]1Cc2ccccc2CN1C(=O)OC(C)(C)C)c1ccccc1 (stereo partly drawn), which activation is on record?
**A.** The activation was inactive: -3.37%.

**Q.** Which activation does the source give for CCOc1ccc(NC(=O)Nc2nnc(CC)s2)cc1 here?
**A.** Its activation is inactive: -5.46%.

**Q.** O=C(Nc1nnc(CCc2ccccc2)s1)c1ccc(F)cc1 was tested. Which activation did it give?
**A.** The activation was inactive: 2.5%.

**Q.** With Cc1ccccc1OCCSc1nc2ncnc(N)c2[nH]1 as the molecule, how does the activation read?
**A.** The activation was inconclusive: 37.2%.

**Q.** How did the activation turn out when CN(C)CCCN(C(=O)CCOc1ccccc1)c1nc2c(F)cccc2s1 was run?
**A.** The activation was inactive: 9.18%.

**Q.** How did the activation turn out when O=C(Nc1cccc([N+](=O)[O-])c1)C1COc2ccccc2O1 (stereo not drawn) was run?
**A.** Its activation is inconclusive: 44.2%.

**Q.** COCCN(Cc1cc2cc(C)ccc2[nH]c1=O)S(=O)(=O)c1ccc(Cl)cc1 was tested. Which activation did it give?
**A.** Its activation is inactive: -0.237%.

**Q.** How did the activation turn out when O=C1C(Cc2ccccc2)Nc2ncnc(N3CCOCC3)c2N1Cc1ccc(Br)cc1 (stereo not drawn) was run?
**A.** The activation was inconclusive: 36%.

**Q.** How did the activation turn out when COc1ccccc1/C=C/C(=O)Nc1cccnc1 was run?
**A.** Its activation is inconclusive: 61.1%.

**Q.** How did the activation turn out when CC(=O)c1c(C)[nH]c(C(=O)COC(=O)CCOc2ccc(C)cc2)c1C was run?
**A.** Its activation is inconclusive: 35.6%.

**Q.** For Cc1cc(/C=C2/C(=O)N(C)C(=S)N2C)ccc1N1CCCC1, which activation is on record?
**A.** Its activation is inactive: 20.4%.

**Q.** Which activation does the source give for O=C1NC(=Nc2ccccc2)S/C1=C\c1cccn1-c1ccccc1 here?
**A.** The activation was inconclusive: 36.4%.

**Q.** How did the activation turn out when CCN(Cc1ccccc1)C(=O)C(C)OC(=O)c1cc(S(=O)(=O)Nc2c(C)n(C)n(-c3ccccc3)c2=O)ccc1C (stereo not drawn) was run?
**A.** Its activation is inactive: -0.482%.

**Q.** For Cc1noc(C(=O)N2CCN(c3ccccc3)CC2)c1Cl, which activation is on record?
**A.** Its activation is inconclusive: 56.8%.

**Q.** How did the activation turn out when O=C(CCc1ccc(S(=O)(=O)N2CCOCC2)cc1)Nc1nc(COc2ccccc2)cs1 was run?
**A.** Its activation is inactive: 5.51%.

**Q.** How did the activation turn out when COC(=O)c1c(N2C(=O)Nc3ccccc3N2O)sc(C)c1C was run?
**A.** Its activation is inactive: -13.8%.

**Q.** Which activation does the source give for Cc1ccc(-c2nnc(-c3cccs3)o2)cc1 here?
**A.** Its activation is inconclusive: 50.7%.

**Q.** Which activation does the source give for CCC1C(=NO)C(CC)C(c2ccccc2)NC1c1ccccc1 (stereo not drawn) here?
**A.** The activation was inconclusive: 37.2%.

**Q.** For O=C(c1cc(-c2cccs2)on1)N1CCOCC1, which activation is on record?
**A.** Its activation is inconclusive: 38.6%.

**Q.** Which activation does the source give for COc1cc(C(=O)Oc2ccccc2/C=N/NC(=O)c2ccc(C)c(Cl)c2)cc(OC)c1OC here?
**A.** Its activation is inactive: 1.92%.

**Q.** For Cc1ccc(NC(=O)[C@@H]2CCC(=O)N2C2OC(=O)c3ccccc32)cc1Cl (stereo partly drawn), which activation is on record?
**A.** The activation was inactive: -3.77%.

**Q.** How did the activation turn out when COC(=O)c1[nH]c2ccc(Br)cc2c1NC(=O)CN1CCCc2ccccc21 was run?
**A.** The activation was inconclusive: 46.7%.

**Q.** Nc1ccc2nc3c(=O)n(CCc4ccccc4)c(=O)[nH]c3nc2c1 was tested. Which activation did it give?
**A.** Its activation is active: 107%.

**Q.** O=C1c2ccccc2-c2onc3ccc(NCCCn4ccnc4)c1c23 was tested. Which activation did it give?
**A.** Its activation is inconclusive: 59.9%.

**Q.** For CCOc1ccc(NC(=S)NC(=O)c2c(Br)cnn2C)c([N+](=O)[O-])c1, which activation is on record?
**A.** The activation was inactive: 1.44%.

**Q.** Which activation does the source give for Cc1ccc(/C=N/NC(=O)Cc2ccc(O)cc2)s1 here?
**A.** The activation was inactive: 8.51%.

**Q.** O=C(Nc1cccc2ncccc12)c1ccc(F)cc1 was tested. Which activation did it give?
**A.** Its activation is inactive: -0.709%.

**Q.** How did the activation turn out when CC(C)CCN1CC(O)=C(c2nc3ccccc3[nH]2)C1=N was run?
**A.** Its activation is inconclusive: 39.5%.

**Q.** Which activation does the source give for CCOC(=O)C1CCCN(S(=O)(=O)c2ccc(-n3cnnn3)c(C)c2)C1 (stereo not drawn) here?
**A.** Its activation is inconclusive: 44.8%.

**Q.** O=C(Nc1ccc(Cc2ccncc2)cc1)c1ccc(Br)o1 was tested. Which activation did it give?
**A.** Its activation is inconclusive: 46.3%.

**Q.** With O=C(CC12CC3CC(CC(C3)C1)C2)NCc1ccncc1 as the molecule, how does the activation read?
**A.** The activation was inconclusive: 39.5%.

**Q.** C/C(=N\NC(=O)c1cccc(F)c1)c1ccc(Br)s1 was tested. Which activation did it give?
**A.** The activation was inconclusive: 30.5%.

**Q.** With O=C(NCCC1=CCCCC1)c1cc(S(=O)(=O)N2CCOCC2)ccc1Cl as the molecule, how does the activation read?
**A.** The activation was inconclusive: 57.7%.

**Q.** For Cc1cc(C(=O)NC2CCCc3c2cnn3-c2cccc(C)c2C)n(C)n1 (stereo not drawn), which activation is on record?
**A.** Its activation is inconclusive: 55.1%.

**Q.** How did the activation turn out when CCOC(=O)C(=CNc1cc(C)nn1-c1ccc(Cl)cc1)C(=O)OCC was run?
**A.** The activation was inconclusive: 42.3%.

**Q.** For O=C(CO/N=C/c1ccccc1OC(F)F)N1CCc2ccccc21, which activation is on record?
**A.** The activation was inconclusive: 36.9%.

**Q.** Cc1c(CCC(C)C)c(=O)n2c([nH]c3ccccc32)c1C#N was tested. Which activation did it give?
**A.** The activation was inconclusive: 35.6%.

**Q.** Which activation does the source give for CCC(=O)N1CCN(c2ccccc2NC(=O)COc2cc(C)ccc2C(C)C)CC1 here?
**A.** Its activation is inconclusive: 30.4%.

**Q.** Which activation does the source give for Cc1ccc(SCCC(=O)N2CCN(S(=O)(=O)c3ccccc3)CC2)cc1 here?
**A.** Its activation is inconclusive: 37.7%.

**Q.** For O=C(NCc1ccco1)c1ccc2c(c1)C(=O)N(C1CCCCC1)C2=O, which activation is on record?
**A.** The activation was inconclusive: 77%.

**Q.** For O=C(N/N=C1\CCSc2ccc(F)cc21)c1cccnc1, which activation is on record?
**A.** Its activation is inactive: 14.2%.

**Q.** How did the activation turn out when Cc1ccc(-n2c(C)cc(C(=O)CSc3n[nH]c(N)n3)c2C)cc1 was run?
**A.** The activation was inconclusive: 34.2%.

**Q.** Which activation does the source give for COc1ccc(C2C(C(=O)c3ccco3)=C(O)C(=O)N2c2nnc(C)s2)cc1 (stereo not drawn) here?
**A.** The activation was inactive: -3.52%.

**Q.** COCCCNC(=S)N1CCN(c2nc(-c3ccccc3)cs2)CC1 was tested. Which activation did it give?
**A.** Its activation is inconclusive: 34.7%.

**Q.** COc1cccc(NC(=O)c2cccc(N3C(=O)C4CCC(C)CC4C3=O)c2)c1 (stereo not drawn) was tested. Which activation did it give?
**A.** The activation was inconclusive: 44.8%.

**Q.** Fc1cccc(-c2cc3nc4c(c(N5CCOCC5)n3n2)CCCC4)c1 was tested. Which activation did it give?
**A.** Its activation is inconclusive: 41.3%.

**Q.** How did the activation turn out when CCOC(=O)c1c(NC(=O)COC(=O)c2cnc(C)cn2)sc(C(=O)N(C)C)c1C was run?
**A.** Its activation is inactive: -1.74%.

**Q.** For CCn1c(COc2ccc(C)cc2)nc2ccccc21, which activation is on record?
**A.** Its activation is inconclusive: 62.1%.

**Q.** Which activation does the source give for Cc1cc(C)c2nc(N3CCN(C(=O)c4ccco4)CC3)sc2c1 here?
**A.** The activation was inconclusive: 41.4%.

**Q.** With CCCCCC1=CCC/C1=N\NC(=O)c1ccc2c(c1)OCO2 as the molecule, how does the activation read?
**A.** The activation was inconclusive: 52.5%.

**Q.** For Cc1c(C(=O)Nc2cccc(Cl)c2)c2ccccn2c1CCc1ccncc1, which activation is on record?
**A.** The activation was inactive: -3.3%.

**Q.** For CC1CCc2c(C(=O)NCc3ccccn3)csc2C1 (stereo not drawn), which activation is on record?
**A.** The activation was inconclusive: 36.1%.

**Q.** Which activation does the source give for CC(C)(C)OC(=O)N1CCC(c2c(C(=O)NC3CC3)cnn2-c2ccc(Cl)cc2)CC1 here?
**A.** Its activation is inconclusive: 70.7%.

**Q.** Cc1ccc(N/C=C2\CCCCC2=O)c(C)c1 was tested. Which activation did it give?
**A.** The activation was inconclusive: 40.4%.

**Q.** For CCC(=O)N1CCN(c2ccnc3cc(Cl)ccc23)CC1, which activation is on record?
**A.** The activation was inconclusive: 34.4%.

**Q.** Cc1csc2ncnc(NNC(=O)c3ccc(Cl)cc3)c12 was tested. Which activation did it give?
**A.** The activation was inactive: 12.8%.

Source: PubChem BioAssay AID540275 (National Center for Advancing Translational Sciences (NCATS), 2011)
